Measurements reported in PubChem BioAssay AID1159578 (Peter MacCallum Cancer Centre, 2015)
Here is an unselected part of about 18,000 reagents tested. About 1,030 of all reagents (5.7%) count as active. 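Inactive calls also include pools with fewer than 3300 nuclei, whose migration was not assessed.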 Raw values vary from plate to plate and are shown uncorrected. A number with no mark means an inactive call. Reagent sequences are not shown.

- Assay: 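Genome-wide hunt for genes controlling movement of lymphatic endothelial cells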 (primary screen)
- Cell system: human lymphatic endothelial cells
- Knock-down reagent: siRNA pool against human genes, 40 nM
- Time to read-out: 48 h after transfection
- Measured: 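High-content imaging of dye-stained cells in a scratch assay measures filled wound area and nuclei per well; duplicate means given as ratio to mock and robust z-score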
- Direction: migration robust z-score: higher = faster migration into the scratch; migration relative to mock: higher = more scratch area covered than mock; nuclei per well: higher = more cells in the well
- Call rule: 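Pools averaging fewer than 3300 nuclei are never called; remaining pools count as changed when migration robust z lies outside -2 to 2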
- Meaning of the calls: active = migration changed; inactive = no migration change, or too few cells

The first 3 records as a preview:
no.	gene symbol	migration robust z-score	migration class with cell-count check	migration relative to mock	nuclei per well, duplicate mean
1	CNGA2	-0.36	migration z between -2 and 2; enough cells	0.74	5956
2	RPL13	-0.88	migration z between -2 and 2; enough cells	0.66	4477
3	SLC25A47	-0.21	migration z between -2 and 2; enough cells	0.83	5994

Main list, repeating the preview:
no.	gene symbol	migration robust z-score	migration class with cell-count check	migration relative to mock	nuclei per well, duplicate mean
1	CNGA2	-0.36	migration z between -2 and 2; enough cells	0.74	5956
2	RPL13	-0.88	migration z between -2 and 2; enough cells	0.66	4477
3	SLC25A47	-0.21	migration z between -2 and 2; enough cells	0.83	5994
4	LTBP4	0.36	migration z between -2 and 2; enough cells	0.98	5451
5	ZXDB	-0.37	migration z between -2 and 2; enough cells	0.79	5520
6	OR52N4	-1.08	migration z between -2 and 2; enough cells	0.6	5206
7	OAS2	-0.96	migration z between -2 and 2; enough cells	0.62	4346
8	TATDN2	1.87	migration z between -2 and 2; enough cells	1.17	5678
9	PLBD2	-0.4	migration z between -2 and 2; enough cells	0.78	5172
10	MMP20	0.44	migration z between -2 and 2; enough cells	0.89	5012
11	ZNF430	0.04	migration z between -2 and 2; enough cells	0.9	6214
12	TFCP2L1	0.39	migration z between -2 and 2; enough cells	0.99	5150
13	RAB40AL	-1.12	migration z between -2 and 2; enough cells	0.59	5266
14	HDAC8	0.25	migration z between -2 and 2; enough cells	0.95	7334
15	HTR2C	1.35	migration z between -2 and 2; enough cells	1.06	5351
16	TDRD6	-1.05	migration z between -2 and 2; enough cells	0.62	5902
17	YTHDF2	-1.99	migration z between -2 and 2; enough cells	0.37	3363
18	STRAP	0.08	migration z between -2 and 2; enough cells	0.9	5228
19	TMEM209	-0.24	migration z between -2 and 2; enough cells	0.82	6280
20	IDI1	-0.09	migration z between -2 and 2; enough cells	0.86	7400
21	NTNG1	0.18	migration z between -2 and 2; enough cells	0.94	5932
22	CAND2	-0.05	migration z between -2 and 2; enough cells	0.79	5693
23	PIGH	0.54	migration z between -2 and 2; enough cells	1.02	6899
24	ETV5	-0.73	migration z between -2 and 2; enough cells	0.66	5664
25	KMT5A	1.4	migration z between -2 and 2; enough cells	1.08	5171
26	PSG3	0.03	migration z between -2 and 2; enough cells	0.89	4992
27	HECTD2	1.19	migration z between -2 and 2; enough cells	1.03	4580
28	LRRC57	-2.87 (active)	migration z below -2; enough cells	0.14	4532
29	RPL29	1.23	migration z between -2 and 2; enough cells	1.21	6098
30	TERB2	-0.35	migration z between -2 and 2; enough cells	0.8	5546
31	CDK6	-1.12	migration z between -2 and 2; enough cells	0.59	4901
32	ZKSCAN4	-1.42	migration z between -2 and 2; enough cells	0.51	5606
33	PDLIM2	0.16	migration z between -2 and 2; enough cells	0.92	6032
34	MED7	-1.68	migration z between -2 and 2; enough cells	0.48	4796
35	GNB1	-1.06	migration z between -2 and 2; enough cells	0.6	5013
36	ZNF549	-1.54	migration z between -2 and 2; enough cells	0.48	4865
37	NCF4	0.45	migration z between -2 and 2; enough cells	1	5068
38	DCAF7	-0.12	migration z between -2 and 2; enough cells	0.85	4958
39	LINC01588	0.22	migration z between -2 and 2; enough cells	0.94	6718
40	PNLIPRP2	-1.27	migration z between -2 and 2; enough cells	0.56	6634
41	PPM1M	0.1	migration z between -2 and 2; enough cells	0.82	6134
42	ANKRD29	-0.71	migration z between -2 and 2; enough cells	0.7	6872
43	SLC25A18	0.21	migration z between -2 and 2; enough cells	0.84	6104
44	KIF1C	-0.18	migration z between -2 and 2; enough cells	0.77	4992
45	FGFR3	-2.67 (active)	migration z below -2; enough cells	0.29	3919
46	CNOT6L	0.46	migration z between -2 and 2; enough cells	0.9	5172
47	LRRC45	0.15	migration z between -2 and 2; enough cells	0.92	6372
48	MAGEB2	0.38	migration z between -2 and 2; enough cells	0.99	5252
49	NKAP	0.32	migration z between -2 and 2; enough cells	0.97	6486
50	OVGP1	-0.18	migration z between -2 and 2; enough cells	0.77	5788
51	TRIP13	-0.7	migration z between -2 and 2; enough cells	0.67	6330
52	FREY1	-1.02	migration z between -2 and 2; enough cells	0.62	5640
53	CIAO3	-0.04	migration z between -2 and 2; enough cells	0.88	4550
54	TACR2	-0.57	migration z between -2 and 2; enough cells	0.7	7422
55	MYO18B	1.4	migration z between -2 and 2; enough cells	1.07	5490
56	ANGPTL5	1.5	migration z between -2 and 2; enough cells	1.27	5131
57	CD164L2	-0.1	migration z between -2 and 2; enough cells	0.86	6127
